# The whole screen tested about 1,400 compounds, of which fewer than 10 were called active. This list was built around the results that the source calls inconclusive (neither active nor inactive); the mix of calls is not that of the screen. Calls follow the shape of the full dose curve. A potency beside an inconclusive call is a rough fit, not a confirmed value.
# Assay: Assay for Inhibitors of Influenza NS1 Protein Function: Hit Validation; as to activity change, negative = inhibition: 0% is about no effect
# Details: influenza NS1 function cell assay, 15-point titration; activity change, negative = inhibition: at 32.9 µM (top of the series)
# Source text: NIH Chemical Genomics Center [NCGC]
# NIH Molecular Libraries Probe Centers Network [MLPCN]
# Assay Submitter (PI): Daniel Engel
# Influenza is a world-wide public health problem and emerging forms of the virus have the potential to cause a pandemic of equal or greater magnitude to the outbreaks recorded in 1918, 1957 or 1968. Vaccine development is proceeding and there also exist two classes of anti-influenza compounds. However these therapeutic modalities are neither fully effective nor widely enough available to fulfill global needs. In addition their potential usefulness against newly emergent strains is not known. Efforts are needed to develop novel agents against influenza virus, including broad-spectrum agents. Identification of small molecules that inhibit NS1 function either directly or by interfering with specific cellular pathways may be a key to increasing our defense against the virus.
# We have miniaturized and optimized a cell based assay in which NS1 from influenza A is expressed in the budding yeast S. cerevisiae. NS1 is a multi-functional protein that counters the host innate immune response and facilitates viral versus cellular gene expression. Expression of NS1 causes a pronounced slow growth phenotype in yeast due to its intrinsic molecular activities. Small molecules that suppress the slow growth phenotype can be identified by a straightforward growth recovery assay using optical density (OD) as the measurement. The same yeast strain not expressing NS1 was used as positive control in the yeast growth recovery assay. The present experiment attempted to confirm the activity of compounds observed in the primary screen.
# The yeast S. cerevisiae control and NS1 expressing cells were kindly supplied by laboratory of Dr. Daniel Engel, University of Virginia. Yeast starter cultures were stored in single use aliquots at -80C.
# 1. Yeast culture medium per liter: 1.2 g Yeast Nitrogen Base (w/out amino acids and Ammonium Sulphate), 5.0g Ammonium Sulphate, 0.77g -URA DO (drop-out) Supplement, adjust pH to 6.0. Adjust to 2% glucose prior to inoculating with yeast.
# 2. Yeast assay medium: 1.2 g Yeast Nitrogen Base (w/out amino acids and Ammonium Sulphate), 5.0g Ammonium Sulphate, 0.77g -URA DO (drop-out) Supplement, adjust pH to 6.0. Adjust to 2% D-galactose prior to inoculating with yeast.
# 1. Inoculate 100 mls of yeast culture medium with 1 ml of frozen yeast aliquote. Incubate overnight at 30C, 250RPM.
# 2. Harvest overnight culture at 4000 RPM and wash pellet with 15 mls H2O 3x.
# 3. Re-suspend washed pellet in 10 mls of yeast assay medium.
# 4. Prepare a 1:100 dilution of re-suspended culture in yeast assay medium.
# 5. Dispense 3.5 ul per well of reagents in step 4 in columns 2-48 in a black clear bottom 1536 well plate.
# 6. Dispense 3.5 ul per well of yeast assay medium in column 1 only.
# 7. Transfer 23 nl of compound per well.
# 8. Dispense 3.5 ul per well of yeast assay medium in columns 1-48.
# 9. Read plate using Viewlux protocol for optical density 600 (OD600) using excitation filter 600nm.
SMILES,Potency,"activity change, negative = inhibition"
C/C(CC(=O)N(C(C)C)C(C)C)=N\NC(=O)COc1ccc(Br)cc1Br,"inconclusive: 17.7 µM [signal inhibitor, partial curve, poor fit]",
C/C(=N\NC(=S)Nc1ccc(C)c(C)c1)c1ccc(N2CCOCC2)cc1,"inconclusive: 7.06 µM [signal inhibitor, partial curve]",
C=CCNC(=O)/C(C#N)=C/c1cn(-c2ccccc2)nc1-c1ccc(OC)c([N+](=O)[O-])c1,,inactive: 30%
O=C(COc1ccc(Cl)cc1)N1CCN(c2ccc([N+](=O)[O-])c(N3CCCCC3)c2)CC1,"inconclusive: 19.9 µM [signal inhibitor, single point]",
CC1=NN(c2ccc(C(=O)OC(C)C)cc2)C(=O)/C1=C\C=C\c1ccco1,,inactive: 3.08%
Cc1cc(C(=O)Nc2nnc(-c3ccccc3)s2)no1,"inconclusive: 0.561 µM [signal inhibitor, full curve]",
NC(=S)N/N=C/c1ccccc1OCCSc1ccc(Cl)cc1,"inconclusive: 22.3 µM [signal inhibitor, single point]",
O=S(=O)(Nc1ccc(N2CCCCC2)cc1)c1ccccc1,"inconclusive: 7.93 µM [signal inhibitor, partial curve, poor fit]",
NC(=O)[C@H]1CC2(CC(c3cccc(NC(=O)CC(c4ccccc4)c4ccccc4)c3)=NO2)CN1C(=O)CC(c1ccccc1)c1ccccc1 (some centres undefined),,inactive: 11.6%
Cc1sc2nc(CN(Cc3cccs3)C(=O)NC3CCCCC3)[nH]c(=O)c2c1C,"inconclusive: 14.1 µM [signal inhibitor, partial curve]",
Cc1cc(-c2ccccc2)c2c(=O)[nH][nH]c2n1,"inconclusive: 22.3 µM [signal activator, partial curve, poor fit]",
Cc1cc(-c2ccc(NC(=O)[C@@H]3CCCC[C@@H]3C(=O)O)c(C)c2)ccc1NC(=O)[C@@H]1CCCC[C@@H]1C(=O)O,"inconclusive: 19.9 µM [signal activator, partial curve]",
O=C(Nc1cc(Oc2ccccc2)cc([N+](=O)[O-])c1)C12CC3CC(C1)CC(n1cnc(Cl)n1)(C3)C2,"inconclusive: 22.3 µM [signal inhibitor, single point]",
Cc1ccc(S(=O)(=O)c2cc3c(=O)n4ccccc4nc3n(CC3CCCO3)c2=N)cc1C (centres undefined),"inconclusive: 3.97 µM [signal inhibitor, full curve]",
CCOC(=O)c1cc(OC(=O)c2cccnc2)n(-c2ccccc2)n1,"inconclusive: 19.9 µM [signal activator, partial curve, poor fit]",
N#CC1=C(N)OC2=C(CC/C2=C\c2ccccc2)C1c1ccccc1 (centres undefined),"inconclusive: 15.8 µM [signal inhibitor, partial curve]",
Cc1cc(-c2nnc3n2N=C(c2ccc(-c4ccccc4)cc2)CS3)n[nH]1,"inconclusive: 19.9 µM [signal inhibitor, partial curve, poor fit]",
COc1cc(C2C3C(=O)N(Cc4ccccc4)C(=O)C3ON2c2ccccc2)cc(OC)c1OC (centres undefined),"inconclusive: 22.3 µM [signal inhibitor, single point]",
Nc1nonc1-n1nnc(C(=O)N/N=C/c2ccco2)c1CSc1ccccc1,,inactive: 8.04%
O=C(N/N=C/CCc1ccccc1)c1ccc(CN2c3cccc4cccc(c34)S2(=O)=O)cc1,,inactive: 25%

# Single records, from the list above.
# O=C(COc1ccc(Cl)cc1)N1CCN(c2ccc([N+](=O)[O-])c(N3CCCCC3)c2)CC1 in the list: Potency: inconclusive: 19.9 µM [signal inhibitor, single point]
# Cc1cc(C(=O)Nc2nnc(-c3ccccc3)s2)no1 in the list: Potency: inconclusive: 0.561 µM [signal inhibitor, full curve]

# Going on with the list:

SMILES,Potency,"activity change, negative = inhibition"
COC(=O)C1=C(C)N(Cc2ccc(C)cc2)C(=O)/C1=C\c1ccc(O)c(OC)c1,"inconclusive: 19.9 µM [signal inhibitor, partial curve]",
CN(C)C(=O)Oc1ccc2oc(=O)cc(-c3cc4ccccc4o3)c2c1,,inactive: -4.37%
O=C(/C(=N/N=C/c1ccc(O)c(O)c1O)c1ccccc1)c1ccccc1,"inconclusive: 8.89 µM [signal inhibitor, partial curve, poor fit]",
CC1=NN(Cc2cc(C(C)(C)C)c(O)c(C(C)(C)C)c2)C(=O)C1,"inconclusive: 7.93 µM [signal activator, partial curve, poor fit]",
COC(=O)Cc1[nH]nc2c1C(c1ccc(O)c(OC)c1)C(C#N)=C(N)O2 (centres undefined),"inconclusive: 11.2 µM [signal activator, partial curve, poor fit]",
CCCn1c(C)nc2c(c1=O)c1nc3ccccc3nc1n2CCC1=CCCCC1,"inconclusive: 19.9 µM [signal inhibitor, partial curve, poor fit]",
C[C@]12C=CC(=O)C=C1CCC1C2=CC[C@]2(C)[C@@H](C(=O)CN3CCN(c4cc(N5CCCC5)nc(N5CCCC5)n4)CC3)CC[C@@H]12 (some centres undefined),"inconclusive: 7.93 µM [signal inhibitor, full curve]",
Cc1ccc(F)c([C@H]2[C@H]3C=CC[C@@H](C)[C@@H]3C(=O)N2Cc2ccccc2)c1,"inconclusive: 22.3 µM [signal inhibitor, single point]",
COC(=O)C(O)(c1c(C)[nH]n(-c2ccccc2)c1=O)C(F)(F)F (centres undefined),"inconclusive: 22.3 µM [signal activator, single point]",
Cc1cc(N2C(=O)C(O)=C(C(=O)c3ccc(C)o3)C2c2cccs2)no1 (centres undefined),,inactive: -25.7%
CC12CCC(C(=O)N(CSC(=S)N/N=C\c3ccccc3Cl)C1=O)C2(C)C (centres undefined),"inconclusive: 8.89 µM [signal inhibitor, full curve, poor fit]",
COc1ccc(CSc2nc(O)cc(=O)n2CC(C)C)cc1F,"inconclusive: 12.6 µM [signal activator, partial curve, poor fit]",
CCN(CC)C(=O)c1sc2nc(-c3cccs3)cc(-c3ccc(Cl)cc3)c2c1N,"inconclusive: 1.41 µM [signal inhibitor, full curve, poor fit]",
O=C(Nc1ccc(O)cc1)C1CC=CCC1 (centres undefined),,inactive: 8.66%
COc1cc(Cl)ccc1OCc1cc(C(=O)N2CCCCC2c2cccnc2)no1 (centres undefined),"inconclusive: 17.7 µM [signal inhibitor, partial curve]",
CCc1ccc(S(=O)(=O)Nc2cc3c(cc2N2CCCCC2)n(C)c(=O)c(=O)n3C)cc1,,inactive: -23.4%
CCOC(=O)c1c(C)[nH]c(C(=O)/C(C#N)=C/c2ccc(OCC)cc2)c1C,,inactive: -21.2%
COc1ccc([C@H]2[C@H](C(=O)C(C)(C)C)N3N=Cc4ccccc4C3[C@]23N=C(c2ccccc2)OC3=O)cc1 (some centres undefined),,inactive: -9.74%
COc1ccccc1/C=N/NC(=O)c1[nH]c(C)c(C(=O)N/N=C/c2ccccc2OC)c1C,"inconclusive: 6.3 µM [signal inhibitor, partial curve, poor fit]",
CCOC(=O)C1=C(C)N=C2SC(C)C(=O)N2C1c1ccc(C(=O)OC)cc1 (centres undefined),,inactive: -0.631%

SMILES,Potency,"activity change, negative = inhibition"
CCn1c(SCC(=O)O)nnc1-c1cc2c(C)nn(-c3ccccc3)c2s1,,inactive: 8%
C/C(=N\Nc1nc2ccc(Cl)cc2o1)c1ccccc1,"inconclusive: 3.97 µM [signal activator, full curve, poor fit]",
Cc1ccc(S(=O)(=O)C/N=C(/NC(=S)N(c2ccccc2)c2ccccc2)c2ccccc2)cc1,"inconclusive: 22.3 µM [signal inhibitor, single point]",
CCN(CC)C(=O)CSc1nnc(-c2ccccc2)n1N,,inactive: 9.56%
CCC(C)C(NC(=O)c1ccccc1NC(=O)c1ccco1)C(=O)NC1CCCCC1 (centres undefined),,inactive: 0.881%
CCC(C)c1c(O)nc(SCC(=O)c2ccccc2)[nH]c1=O (centres undefined),,inactive: 2%
COc1ccc(-n2c(SCC(=O)N3CCCCC3)nc(O)cc2=O)cc1,"inconclusive: 7.93 µM [signal activator, partial curve, poor fit]",
COc1cc(/C=N/NC(=O)c2ccc(CSc3nc4ccccc4[nH]3)cc2)cc(OC)c1OC,"inconclusive: 19.9 µM [signal activator, partial curve, poor fit]",
Cc1cc(O)ccc1Nc1nc(-c2sc(N)nc2C)cs1,,inactive: 5.73%
C/C=C/COC(=O)c1[nH]c2c(c1C)C(=O)CC(c1ccc(N(C)C)cc1)C2 (centres undefined),"inconclusive: 17.7 µM [signal inhibitor, partial curve, poor fit]",
Cc1ccc2nc(NNC(=O)c3ccc(S(=O)(=O)N4CCc5ccccc5C4)cc3)sc2c1,"inconclusive: 1.58 µM [signal inhibitor, full curve, poor fit]",
COc1cccc(/C=C2\C(=O)N(c3cccc(C)c3)C(=O)c3ccccc32)c1,"inconclusive: 14.1 µM [signal inhibitor, partial curve, poor fit]",
c1ccc(-n2c(SCC3CCCCO3)nnc2-c2cccs2)cc1 (centres undefined),"inconclusive: 9.98 µM [signal inhibitor, partial curve, poor fit]",
Cc1ccc(S(=O)(=O)N(Cc2ccccc2)c2ccccc2C(=O)Nc2ccccc2C(=O)NCc2ccco2)cc1,,inactive: -20.5%
Cc1cc(NC(=O)CCC(=O)N(CC(=O)NC2CCCC2)c2cccc(F)c2)no1,,inactive: -7.05%
CC1=C(C#N)c2nc(N)c(C#N)c(C)c2/C1=C\c1ccc(C)cc1,"inconclusive: 15.8 µM [signal inhibitor, partial curve]",
CCOC(=O)C1CCCN(C(=O)Cn2sc3nc(C)cc(C)c3c2=O)C1 (centres undefined),"inconclusive: 25.1 µM [signal inhibitor, single point]",
CN(C)S(=O)(=O)c1ccc(Cl)c(NC(=O)COC(=O)/C=C/c2ccc(S(=O)(=O)N3CCOCC3)cc2)c1,"inconclusive: 12.6 µM [signal inhibitor, single point]",
O=C(CSc1nnc(Nc2ccccc2)s1)Nc1cccc(S(=O)(=O)N2CCCCC2)c1,"inconclusive: 8.89 µM [signal inhibitor, full curve]",

# In the list so far, 11 contain an aryl methoxy group.
SMILES,Potency,"activity change, negative = inhibition"
C=CCNC(=O)/C(C#N)=C/c1cn(-c2ccccc2)nc1-c1ccc(OC)c([N+](=O)[O-])c1,,inactive: 30%
COc1cc(C2C3C(=O)N(Cc4ccccc4)C(=O)C3ON2c2ccccc2)cc(OC)c1OC (centres undefined),"inconclusive: 22.3 µM [signal inhibitor, single point]",
COC(=O)C1=C(C)N(Cc2ccc(C)cc2)C(=O)/C1=C\c1ccc(O)c(OC)c1,"inconclusive: 19.9 µM [signal inhibitor, partial curve]",
COC(=O)Cc1[nH]nc2c1C(c1ccc(O)c(OC)c1)C(C#N)=C(N)O2 (centres undefined),"inconclusive: 11.2 µM [signal activator, partial curve, poor fit]",
COc1ccc(CSc2nc(O)cc(=O)n2CC(C)C)cc1F,"inconclusive: 12.6 µM [signal activator, partial curve, poor fit]",
COc1cc(Cl)ccc1OCc1cc(C(=O)N2CCCCC2c2cccnc2)no1 (centres undefined),"inconclusive: 17.7 µM [signal inhibitor, partial curve]",
COc1ccc([C@H]2[C@H](C(=O)C(C)(C)C)N3N=Cc4ccccc4C3[C@]23N=C(c2ccccc2)OC3=O)cc1 (some centres undefined),,inactive: -9.74%
COc1ccccc1/C=N/NC(=O)c1[nH]c(C)c(C(=O)N/N=C/c2ccccc2OC)c1C,"inconclusive: 6.3 µM [signal inhibitor, partial curve, poor fit]",
COc1ccc(-n2c(SCC(=O)N3CCCCC3)nc(O)cc2=O)cc1,"inconclusive: 7.93 µM [signal activator, partial curve, poor fit]",
COc1cc(/C=N/NC(=O)c2ccc(CSc3nc4ccccc4[nH]3)cc2)cc(OC)c1OC,"inconclusive: 19.9 µM [signal activator, partial curve, poor fit]",
COc1cccc(/C=C2\C(=O)N(c3cccc(C)c3)C(=O)c3ccccc32)c1,"inconclusive: 14.1 µM [signal inhibitor, partial curve, poor fit]",

# — PubChem BioAssay AID492980 (National Center for Advancing Translational Sciences (NCATS), 2010)
